Experimental findings from patent publication US20200033364A1 are described below.

Positions count from the first letter of the chain named. These are yes or no findings as the source states them, for the method shown. Binding seen in cells or lysates may run through a third protein. Some binding calls cover weakened binding; strength is not graded here.

The assay addresses Protein A (UniProt P38507). Description: immunocapture from human serum on Protein A magnetic beads, then on-bead trypsin digestion and UPLC-MS/MS.

B1: eculizumab (antibody, human IgG2, kappa)
heavy: QVQLVQSGAEVKKPGASVKVSCKASGYIFSNYWIQWVRQAPGQGLEWMGEILPGSGSTEYTENFKDRVTMTRDTSTSTVYMELSSLRSEDTAVYYCARYFFGSSPNWYFDVWGQGTLVTVSSASTKGPSVFPLAPCSRSTSESTAALGCLVKDYFPEPVTVSWNSGALTSGVHTFPAVLQSSGLYSLSSVVTVPSSNFGTQTYTCNVDHKPSNTKVDKTVERKCCVECPPCPAPPVAGPSVFLFPPKPKDTLMISRTPEVTCVVVDVSQEDPEVQFNWYVDGVEVHNAKTKPREEQFNSTYRVVSVLTVLHQDWLNGKEYKCKVSNKGLPSSIEKTISKAKGQPREPQVYTLPPSQEEMTKNQVSLTCLVKGFYPSDIAVEWESNGQPENNYKTTPPVLDSDGSFFLYSRLTVDKSRWQEGNVFSCSVMHEALHNHYTQKSLSLSLGK
light: DIQMTQSPSSLSASVGDRVTITCGASENIYGALNWYQQKPGKAPKLLIYGATNLADGVPSRFSGSGSGTDFTLTISSLQPEDFATYYCQNVLNTPLTFGQGTKVEIKRTVAAPSVFIFPPSDEQLKSGTASVVCLLNNFYPREAKVQWKVDNALQSGNSQESVTEQDSKDSTYSLSSTLTLSKADYEKHKVYACEVTHQGLSSPVTKSFNRGEC
Take B1: the binding entry was “binds”.

B2: ALXN1210 (antibody, human IgG2, kappa)
heavy: B1 heavy with Y27H, S57H, M429L, N435S
light: B1 light
Consider B2, for which the binding entry is reported as “binds”.
